Values from PubChem BioAssay AID1259331 (Drosophila RNAi Screening Center, 2017).

Screen: 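Genes whose knock-down changes cell survival under toxic zinc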 (primary screen)
Cells: Drosophila S2R+ cells
Knock-down reagent: long dsRNA against Drosophila genes
Time to read-out: 5 days (4 days knock-down, then 1 day zinc)
Conditions: zinc chloride at 15 mM final level for 1 day
Measurement: 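Total cellular ATP measured by luciferase luminescence as a viability proxy, turned into Z scores from three plate copies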
Direction: mean Z score: higher = more ATP than other wells, better survival under zinc; ATP luminescence: higher = more ATP, more viable cells
Call rule: 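a reagent is called a hit when its Z score is above 1.5 or below -1.5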
Calls: active = hit, ATP up or down; inactive = not a hit
Shown is a random part of about 3,100 reagents. Of all reagents, 126 (4.1%) are marked active. 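Calls are per reagent; zinc was so toxic that few knock-downs lowered ATP further, so most hits raise ATP.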 The raw values are shown without normalisation. A plus sign joins genes that one reagent is predicted to hit. The record does not give: the amount of reagent.

| gene | amplicon | mean Z score | ATP luminescence, replicate 1 | ATP luminescence, replicate 2 | Call |
| --- | --- | --- | --- | --- | --- |
| Lar | DRSC01707 | -0.34 | 36132 | 38445 | inactive |
| Lar | DRSC03361 | -0.201 | 53207 | 53571 | inactive |
| Lar | DRSC36994 | -0.47 | 43468 | 35650 | inactive |
| Indy | DRSC10393 | -0.525 | 25331 | 28471 | inactive |
| zpg | DRSC09702 | -0.218 | 70956 | 55539 | inactive |
| zpg | DRSC26258 | -0.0662 | 58577 | 57717 | inactive |
| CG13793 | DRSC02297 | -0.256 | 46522 | 36250 | inactive |
| CG13793 | DRSC28252 | 0.156 | 63959 | 63635 | inactive |
| CG7536 | DRSC20050 | -0.417 | 41376 | 39713 | inactive |
| CG7536 | DRSC39596 | -0.361 | 53155 | 58231 | inactive |
| tomboy20 | DRSC14913 | -0.0143 | 36062 | 55556 | inactive |
| CG31358 + CG42505 + CG42504 | DRSC15235 | -0.339 | 41685 | 43588 | inactive |
| CG31358 + CG42505 + CG42504 | DRSC15308 | -0.294 | 46640 | 39696 | inactive |
| CG31358 + CG42505 + CG42504 | DRSC15309 | -0.155 | 37049 | 55962 | inactive |
| Agpat2 | DRSC03532 | -0.538 | 44634 | 52864 | inactive |
| Agpat2 | DRSC27901 | -0.238 | 53070 | 60409 | inactive |
| Sln | DRSC07133 | 0.735 | 99517 | 81213 | inactive |
| Sln | DRSC24171 | -0.992 | 44977 | 41205 | inactive |
| CLS | DRSC15642 | 0.842 | 48749 | 73477 | inactive |
| CLS | DRSC28289 | 1.76 | 81951 | 95074 | active |
| Rh6 | DRSC16823 | 0.674 | 41794 | 66548 | inactive |
| Rh6 | DRSC26166 | 0.669 | 72500 | 65983 | inactive |
| CG8860 | DRSC07291 | -0.108 | 83940 | 67114 | inactive |
| CG8860 | DRSC25286 | -0.141 | 54099 | 53293 | inactive |
| CG3829 | DRSC04423 | -0.477 | 28245 | 30233 | inactive |
| Gr93b | DRSC22063 | -0.0377 | 48114 | 46331 | inactive |
| Gr93b | DRSC39438 | -0.509 | 38308 | 47960 | inactive |
| CG6293 | DRSC16011 | 1.52 | 62673 | 63531 | active |
| CG6293 | DRSC28774 | 0.124 | 67612 | 58906 | inactive |
| CG5342 | DRSC15776 | -0.535 | 40210 | 51389 | inactive |
| Tsp42Ef | DRSC06191 | -0.777 | 73597 | 61089 | inactive |
| Nrx-IV | DRSC11238 | -0.413 | 28673 | 29759 | inactive |
| Nrx-IV | DRSC39823 | 0.714 | 64490 | 68212 | inactive |
| CG31106 | DRSC14655 | -0.0595 | 36370 | 57417 | inactive |
| CG2736 | DRSC04314 | -0.448 | 27045 | 27405 | inactive |
| CG2736 | DRSC39898 | -0.0817 | 56105 | 62364 | inactive |
| M6 | DRSC11869 | -0.393 | 70459 | 53053 | inactive |
| M6 | DRSC39840 | 0.197 | 55762 | 62450 | inactive |

Called active, of those listed so far:
| gene | amplicon | mean Z score | ATP luminescence, replicate 1 | ATP luminescence, replicate 2 | Call |
| --- | --- | --- | --- | --- | --- |
| CLS | DRSC28289 | 1.76 | 81951 | 95074 | active |
| CG6293 | DRSC16011 | 1.52 | 62673 | 63531 | active |

Continued:
| gene | amplicon | mean Z score | ATP luminescence, replicate 1 | ATP luminescence, replicate 2 | Call |
| --- | --- | --- | --- | --- | --- |
| Kr-h2 | DRSC03356 | -0.223 | 42314 | 33430 | inactive |
| Kr-h2 | DRSC39752 | -0.261 | 57923 | 53086 | inactive |
| CG9240 | DRSC20177 | 0.693 | 78606 | 76445 | inactive |
| CG3397 | DRSC15487 | -0.242 | 43931 | 42216 | inactive |
| CG3397 | DRSC39547 | -0.0107 | 61938 | 59792 | inactive |
| CG3792 | DRSC02725 | -0.172 | 48372 | 40433 | inactive |
| CG11155 | DRSC17184 | -0.5 | 69052 | 53450 | inactive |
| CG11155 | DRSC17205 | 0.378 | 50229 | 50315 | inactive |
| CG11155 | DRSC29324 | 0.265 | 66720 | 64216 | inactive |
| CG14070 | DRSC02373 | -0.764 | 39264 | 33233 | inactive |
| rst | DRSC17243 | -0.42 | 70544 | 53121 | inactive |
| rst | DRSC18828 | -0.586 | 53138 | 59586 | inactive |
| rst | DRSC39453 | 0.378 | 55676 | 56083 | inactive |
| unc-5 | DRSC05545 | -1.24 | 44017 | 46863 | inactive |
| unc-5 | DRSC07711 | 0.014 | 79000 | 74318 | inactive |
| unc-5 | DRSC07712 | 0.0929 | 43699 | 44219 | inactive |
| mthl12 | DRSC12964 | -0.266 | 37947 | 42045 | inactive |
| Egfr | DRSC03871 | 0.475 | 51321 | 46040 | inactive |
| Egfr | DRSC04613 | -0.603 | 26719 | 27559 | inactive |
| Egfr | DRSC36621 | 0.241 | 52710 | 50669 | inactive |
| Egfr | DRSC36622 | -0.108 | 46571 | 48479 | inactive |
| blot | DRSC11328 | -0.575 | 27113 | 30140 | inactive |
| blot | DRSC26157 | -0.0733 | 51389 | 55899 | inactive |
| CG4907 | DRSC15673 | -0.124 | 36747 | 58265 | inactive |
| CG4907 | DRSC39746 | -0.0369 | 61262 | 59654 | inactive |
| CG6052 | DRSC10574 | -0.0483 | 78246 | 59054 | inactive |
| ppk26 | DRSC10991 | 1.02 | 94579 | 75606 | inactive |
| ppk26 | DRSC25876 | 0.11 | 58488 | 59582 | inactive |
| Zip42C.2 | DRSC05004 | -0.151 | 80388 | 67715 | inactive |
| Zip42C.2 | DRSC39021 | 1.67 | 52116 | 99277 | active |
